PubChem BioAssay AID1259308 – NCATS – 2017
Aim: 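Genes whose loss raises luciferase production in HEK293 cells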 (primary screen). Cells: human HEK293 embryonic kidney cells stably expressing firefly luciferase (HEK-CMV-Luc2-Hygro). Reagent: single siRNA against human genes, 0.8 pmol siRNA per well. Duration: 72 h. Read-out: 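Luciferase light (ONE-Glo) measured on one replicate plate set and viability (CellTiter-Glo) on the other, scaled to a negative control siRNA, with robust z-scores and luciferase per cell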. Reading the numbers: total luciferase, z-score and total luciferase, % of control: higher = more reporter protein produced; luciferase per cell, z-score: higher = more reporter output per viable cell. Active means: 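Active when the median/MAD z-score for overall luciferase is greater than 3; a gene was taken forward for validation with new siRNAs if at least two of its three siRNAs passed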. Calls: active = raised luciferase; inactive = no rise.
This is a random part of about 59,000 deposited reagents. Over the whole deposit, about 1,510 (2.6%) are marked active. 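Calls use total luciferase alone and ignore viability, so some active siRNAs may act by altering cell number.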 Unmarked entries are inactive. Reagents against one gene are numbered here. Further read-outs or replicates are left out here.

Target gene	reagent no.	total luciferase, z-score	total luciferase, % of control	luciferase per cell, z-score
ARHGEF38	1	1.8	118	0.762
ARHGEF38	2	-0.399	73.9	-0.699
ARHGEF38	3	-0.436	73.2	-0.312
GOLGA7B	1	-0.244	77	-0.586
GOLGA7B	2	-0.732	67.3	-0.103
GOLGA7B	3	0.436	90.6	0.131
CGREF1	1	-0.851	65	0.248
CGREF1	2	-0.253	76.9	-0.52
CGREF1	3	-0.505	71.8	-0.491
SLCO6A1	1	0.333	88.5	-0.631
SLCO6A1	2	2.04	122	1.66
SLCO6A1	3	1.08	103	1.03
PPP3R2	1	0.254	86.9	1.82
PPP3R2	2	-0.203	77.8	-0.649
PPP3R2	3	0.363	89.1	-0.124
ENPP2	1	2.14	124	2.94
ENPP2	2	0.00688	82	-0.322
ENPP2	3	-0.594	70.1	-0.661
CCNA2	1	-1.23	57.4	-1.29
CCNA2	2	1.66	115	1.82
CCNA2	3	-1.1	60	-0.482
ZNF639	1	0.586	93.5	0.279
ZNF639	2	-0.306	75.8	-0.399
ZNF639	3	0.366	89.2	0.216
MAP4K3-DT	1	2.67	135	2.42
MAP4K3-DT	2	-0.589	70.2	-0.986
MAP4K3-DT	3	0.94	101	2.17
OR5M10	1	1.69	116	1.05
OR5M10	2	-0.147	79	0.123
OR5M10	3	-0.709	67.8	-1.09
CNTN4	1	0.31	88	0.0362
CNTN4	2	-1.04	61.3	-1.2
CNTN4	3	-0.507	71.8	-0.174
ADAM32	1	0.00734	82	0.685
ADAM32	2	-0.657	68.8	-0.71
ADAM32	3	1.22	106	0.387
XBP1	1	-0.392	74.1	-0.579
XBP1	2	-0.111	79.7	-0.424
XBP1	3	4.23 (active)	166	3.57
ZNF169	1	0.225	86.4	0.0594
ZNF169	2	-0.645	69.1	0.14
ZNF169	3	0.111	84.1	-0.209
SCARB2	1	-0.244	77	1.23
SCARB2	2	-2.15	39.1	-1.85
SCARB2	3	0.457	91	0.691
SPATA8	1	-0.593	70.1	-0.904
SPATA8	2	0.948	101	0.305
SPATA8	3	-0.651	68.9	-0.346
GNA13	1	-1.71	47.8	-1.38
GNA13	2	-0.0321	81.2	0.155
GNA13	3	-0.611	69.7	-1.31
TUBGCP6	1	2.29	127	1.62
TUBGCP6	2	0.562	93.1	-0.272
TUBGCP6	3	-0.294	76	-0.0384
RPS21	1	-1.59	50.3	0.17
RPS21	2	-1.15	59	-0.433
RPS21	3	-3.07	20.8	-4.29
